# According to the supplement of paper PMC12067093, “Discovery and optimisation of a covalent ligand for TRIM25 and its application to targeted protein ubiquitination” (Chemical Science, 2025):
# Amino acid sequences for entries named in this document (tags omitted). A change or cut given only in a name is not applied to a line headed by its entry.
# UniProt O95628: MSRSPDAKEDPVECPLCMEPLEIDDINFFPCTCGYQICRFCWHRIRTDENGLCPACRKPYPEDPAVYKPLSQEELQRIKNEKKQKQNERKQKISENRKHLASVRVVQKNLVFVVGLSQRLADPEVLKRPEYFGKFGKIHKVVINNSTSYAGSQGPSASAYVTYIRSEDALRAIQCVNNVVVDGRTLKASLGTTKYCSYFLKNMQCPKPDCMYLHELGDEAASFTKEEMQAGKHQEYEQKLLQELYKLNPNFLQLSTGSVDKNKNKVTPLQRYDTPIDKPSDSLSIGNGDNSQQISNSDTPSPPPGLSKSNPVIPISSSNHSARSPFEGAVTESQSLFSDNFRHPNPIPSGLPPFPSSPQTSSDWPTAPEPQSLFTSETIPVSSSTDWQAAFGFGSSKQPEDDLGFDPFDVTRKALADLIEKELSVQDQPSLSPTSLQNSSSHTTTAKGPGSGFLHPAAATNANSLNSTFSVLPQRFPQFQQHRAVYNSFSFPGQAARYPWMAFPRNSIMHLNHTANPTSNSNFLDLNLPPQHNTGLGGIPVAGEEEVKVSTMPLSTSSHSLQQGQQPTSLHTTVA
# UniProt Q9Y678: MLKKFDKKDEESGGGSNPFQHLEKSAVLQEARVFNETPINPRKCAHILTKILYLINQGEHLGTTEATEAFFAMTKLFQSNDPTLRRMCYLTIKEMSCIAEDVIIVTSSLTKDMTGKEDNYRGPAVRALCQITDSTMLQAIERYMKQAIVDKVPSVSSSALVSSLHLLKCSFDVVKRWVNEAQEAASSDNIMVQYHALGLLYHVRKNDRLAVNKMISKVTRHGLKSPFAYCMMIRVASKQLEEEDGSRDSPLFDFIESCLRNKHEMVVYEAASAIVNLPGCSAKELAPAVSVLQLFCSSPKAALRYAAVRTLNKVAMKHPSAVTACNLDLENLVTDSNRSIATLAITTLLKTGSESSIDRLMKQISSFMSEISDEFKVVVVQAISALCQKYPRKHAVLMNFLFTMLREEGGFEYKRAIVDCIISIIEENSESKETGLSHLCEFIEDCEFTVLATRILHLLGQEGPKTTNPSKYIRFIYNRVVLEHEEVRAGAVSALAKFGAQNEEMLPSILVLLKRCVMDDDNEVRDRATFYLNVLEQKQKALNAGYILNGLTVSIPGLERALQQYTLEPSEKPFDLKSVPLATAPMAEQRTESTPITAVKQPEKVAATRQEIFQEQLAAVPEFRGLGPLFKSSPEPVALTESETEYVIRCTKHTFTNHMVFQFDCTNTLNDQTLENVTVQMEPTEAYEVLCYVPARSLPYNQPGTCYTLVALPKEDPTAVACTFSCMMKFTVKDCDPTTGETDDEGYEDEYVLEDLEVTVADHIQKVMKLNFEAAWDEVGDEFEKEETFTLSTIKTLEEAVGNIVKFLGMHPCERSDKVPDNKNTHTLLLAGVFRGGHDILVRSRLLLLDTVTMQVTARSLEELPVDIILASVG
# UniProt P53618: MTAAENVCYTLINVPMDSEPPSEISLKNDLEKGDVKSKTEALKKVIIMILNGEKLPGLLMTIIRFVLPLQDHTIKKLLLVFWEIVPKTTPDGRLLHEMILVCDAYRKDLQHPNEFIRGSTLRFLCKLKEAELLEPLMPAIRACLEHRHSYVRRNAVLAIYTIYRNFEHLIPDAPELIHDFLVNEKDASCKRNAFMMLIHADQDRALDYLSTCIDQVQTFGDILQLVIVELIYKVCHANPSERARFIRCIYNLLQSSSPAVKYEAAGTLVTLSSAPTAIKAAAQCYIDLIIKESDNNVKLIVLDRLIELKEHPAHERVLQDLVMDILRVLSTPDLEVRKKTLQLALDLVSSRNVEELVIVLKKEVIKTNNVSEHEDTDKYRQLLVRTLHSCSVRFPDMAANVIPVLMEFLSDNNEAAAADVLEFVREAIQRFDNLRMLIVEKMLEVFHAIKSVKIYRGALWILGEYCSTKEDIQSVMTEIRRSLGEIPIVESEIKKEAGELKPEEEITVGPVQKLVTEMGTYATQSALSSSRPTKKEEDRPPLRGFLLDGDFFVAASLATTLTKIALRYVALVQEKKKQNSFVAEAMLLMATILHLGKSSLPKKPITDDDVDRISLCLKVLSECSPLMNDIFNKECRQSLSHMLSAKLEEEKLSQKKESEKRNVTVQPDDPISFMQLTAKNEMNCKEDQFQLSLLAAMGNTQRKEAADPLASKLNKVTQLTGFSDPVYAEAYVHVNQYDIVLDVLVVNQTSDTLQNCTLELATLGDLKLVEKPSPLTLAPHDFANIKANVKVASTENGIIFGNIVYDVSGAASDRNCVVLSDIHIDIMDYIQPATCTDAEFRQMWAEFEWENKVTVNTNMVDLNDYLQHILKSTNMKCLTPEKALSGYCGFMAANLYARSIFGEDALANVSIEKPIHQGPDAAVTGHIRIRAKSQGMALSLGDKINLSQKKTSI
# UniProt Q8WTW3: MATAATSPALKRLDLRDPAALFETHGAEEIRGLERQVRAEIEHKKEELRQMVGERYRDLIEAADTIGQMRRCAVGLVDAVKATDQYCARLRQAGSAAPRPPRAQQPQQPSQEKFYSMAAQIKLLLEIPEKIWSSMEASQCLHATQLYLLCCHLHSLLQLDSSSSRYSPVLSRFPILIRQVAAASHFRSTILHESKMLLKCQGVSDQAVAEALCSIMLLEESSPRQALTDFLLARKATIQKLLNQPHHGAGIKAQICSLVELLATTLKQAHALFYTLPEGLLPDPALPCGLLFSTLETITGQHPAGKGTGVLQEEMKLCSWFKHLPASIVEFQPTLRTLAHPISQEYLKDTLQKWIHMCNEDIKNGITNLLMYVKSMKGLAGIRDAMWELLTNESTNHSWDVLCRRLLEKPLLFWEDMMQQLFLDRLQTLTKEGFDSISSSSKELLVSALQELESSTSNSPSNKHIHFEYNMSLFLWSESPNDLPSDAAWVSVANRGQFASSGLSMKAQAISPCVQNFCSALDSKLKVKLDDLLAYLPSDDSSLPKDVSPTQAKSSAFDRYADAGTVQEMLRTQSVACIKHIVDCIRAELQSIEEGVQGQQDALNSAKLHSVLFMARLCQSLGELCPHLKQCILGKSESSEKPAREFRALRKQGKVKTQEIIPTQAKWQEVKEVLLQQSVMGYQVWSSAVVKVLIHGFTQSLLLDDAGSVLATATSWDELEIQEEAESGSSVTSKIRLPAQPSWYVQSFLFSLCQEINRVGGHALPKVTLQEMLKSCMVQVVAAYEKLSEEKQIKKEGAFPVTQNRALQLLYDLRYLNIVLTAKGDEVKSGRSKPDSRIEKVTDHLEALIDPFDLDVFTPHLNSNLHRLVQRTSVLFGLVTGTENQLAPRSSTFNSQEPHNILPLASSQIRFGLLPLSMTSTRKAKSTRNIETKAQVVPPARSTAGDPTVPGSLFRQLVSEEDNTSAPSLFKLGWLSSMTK
# UniProt Q7L5N1: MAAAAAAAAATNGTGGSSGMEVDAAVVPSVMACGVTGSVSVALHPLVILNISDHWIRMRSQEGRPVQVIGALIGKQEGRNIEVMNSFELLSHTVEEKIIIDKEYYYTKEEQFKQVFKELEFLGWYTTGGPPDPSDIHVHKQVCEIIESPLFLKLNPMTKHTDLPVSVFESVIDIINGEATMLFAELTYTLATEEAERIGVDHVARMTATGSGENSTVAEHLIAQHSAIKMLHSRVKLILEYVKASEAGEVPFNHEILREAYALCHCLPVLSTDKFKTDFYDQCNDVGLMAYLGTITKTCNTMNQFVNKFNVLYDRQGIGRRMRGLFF
# UniProt Q96KP4: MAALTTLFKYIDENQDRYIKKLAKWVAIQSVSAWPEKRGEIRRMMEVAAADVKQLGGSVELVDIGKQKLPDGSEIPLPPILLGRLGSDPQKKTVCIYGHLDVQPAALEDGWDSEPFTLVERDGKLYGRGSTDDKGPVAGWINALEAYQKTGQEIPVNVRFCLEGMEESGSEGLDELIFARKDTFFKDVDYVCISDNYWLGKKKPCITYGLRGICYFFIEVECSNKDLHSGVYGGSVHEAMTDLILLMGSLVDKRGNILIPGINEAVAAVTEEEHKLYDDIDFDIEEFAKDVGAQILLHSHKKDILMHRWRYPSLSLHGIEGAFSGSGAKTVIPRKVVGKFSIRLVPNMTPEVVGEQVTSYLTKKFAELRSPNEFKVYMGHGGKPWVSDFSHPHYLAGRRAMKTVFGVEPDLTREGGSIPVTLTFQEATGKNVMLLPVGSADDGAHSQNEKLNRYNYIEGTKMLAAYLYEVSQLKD
# UniProt Q9H9A5, whole entry, looked up: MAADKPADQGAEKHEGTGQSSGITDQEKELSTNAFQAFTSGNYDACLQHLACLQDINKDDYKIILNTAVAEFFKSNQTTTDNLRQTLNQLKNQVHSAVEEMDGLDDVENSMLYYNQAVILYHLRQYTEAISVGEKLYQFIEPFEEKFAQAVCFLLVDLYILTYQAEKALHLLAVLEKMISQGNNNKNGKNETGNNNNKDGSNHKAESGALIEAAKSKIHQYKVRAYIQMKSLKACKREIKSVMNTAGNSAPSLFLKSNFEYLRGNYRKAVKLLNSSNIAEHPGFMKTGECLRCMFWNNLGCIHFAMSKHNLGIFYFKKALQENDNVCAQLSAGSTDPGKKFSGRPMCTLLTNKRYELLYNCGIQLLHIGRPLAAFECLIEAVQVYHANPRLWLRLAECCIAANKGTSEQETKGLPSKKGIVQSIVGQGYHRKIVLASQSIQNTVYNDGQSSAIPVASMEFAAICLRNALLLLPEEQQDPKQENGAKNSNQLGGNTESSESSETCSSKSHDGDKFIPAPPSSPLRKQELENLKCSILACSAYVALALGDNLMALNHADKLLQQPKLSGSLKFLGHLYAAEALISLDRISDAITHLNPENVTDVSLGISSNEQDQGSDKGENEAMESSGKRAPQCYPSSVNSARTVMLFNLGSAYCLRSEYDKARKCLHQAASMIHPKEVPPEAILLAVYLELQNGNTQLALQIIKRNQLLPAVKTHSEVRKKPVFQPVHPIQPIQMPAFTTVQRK
# UniProt P21964: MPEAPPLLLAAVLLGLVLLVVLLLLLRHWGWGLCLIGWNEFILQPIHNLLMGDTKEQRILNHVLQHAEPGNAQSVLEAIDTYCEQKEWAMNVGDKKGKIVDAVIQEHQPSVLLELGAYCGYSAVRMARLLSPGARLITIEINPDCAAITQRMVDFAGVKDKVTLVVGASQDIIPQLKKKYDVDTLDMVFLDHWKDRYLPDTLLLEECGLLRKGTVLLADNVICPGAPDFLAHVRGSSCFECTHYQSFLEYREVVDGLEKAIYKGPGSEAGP
# UniProt P53621: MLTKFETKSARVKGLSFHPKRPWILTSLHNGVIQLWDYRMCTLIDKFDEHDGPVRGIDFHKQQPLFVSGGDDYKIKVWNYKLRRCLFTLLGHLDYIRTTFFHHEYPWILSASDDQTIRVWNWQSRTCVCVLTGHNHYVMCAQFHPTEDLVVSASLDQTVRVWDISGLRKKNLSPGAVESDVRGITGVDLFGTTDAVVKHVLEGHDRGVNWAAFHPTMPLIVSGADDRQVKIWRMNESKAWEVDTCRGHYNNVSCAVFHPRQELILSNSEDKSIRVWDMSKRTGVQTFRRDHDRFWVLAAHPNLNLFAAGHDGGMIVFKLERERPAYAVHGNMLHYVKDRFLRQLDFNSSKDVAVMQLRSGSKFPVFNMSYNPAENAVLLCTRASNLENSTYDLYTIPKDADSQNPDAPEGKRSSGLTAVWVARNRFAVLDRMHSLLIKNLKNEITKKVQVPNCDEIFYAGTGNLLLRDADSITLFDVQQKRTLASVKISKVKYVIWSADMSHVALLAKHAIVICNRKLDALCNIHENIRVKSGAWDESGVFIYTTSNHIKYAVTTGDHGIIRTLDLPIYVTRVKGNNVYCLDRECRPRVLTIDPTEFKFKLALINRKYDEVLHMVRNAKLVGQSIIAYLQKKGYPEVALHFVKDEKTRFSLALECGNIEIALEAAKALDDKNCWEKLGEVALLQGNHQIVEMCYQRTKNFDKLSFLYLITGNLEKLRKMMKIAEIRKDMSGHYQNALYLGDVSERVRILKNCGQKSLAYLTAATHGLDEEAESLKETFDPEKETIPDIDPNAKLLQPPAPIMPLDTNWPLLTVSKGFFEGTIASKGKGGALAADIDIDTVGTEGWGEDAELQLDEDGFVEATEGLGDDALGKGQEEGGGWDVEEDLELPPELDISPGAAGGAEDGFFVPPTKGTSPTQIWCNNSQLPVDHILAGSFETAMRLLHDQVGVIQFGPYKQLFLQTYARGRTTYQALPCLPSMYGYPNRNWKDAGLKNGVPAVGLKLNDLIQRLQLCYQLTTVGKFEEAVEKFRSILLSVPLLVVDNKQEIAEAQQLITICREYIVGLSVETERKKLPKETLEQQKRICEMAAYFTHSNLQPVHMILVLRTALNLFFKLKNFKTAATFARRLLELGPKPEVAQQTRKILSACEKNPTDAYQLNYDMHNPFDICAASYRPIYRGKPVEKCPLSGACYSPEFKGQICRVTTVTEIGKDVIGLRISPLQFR
# This is one part of the list.
# Compound: CC1Cc2ccccc2N1C(=O)C1CCCN(C1)C(=O)CCl (mixture of isomers) [TRIM25 ligand 11 (diastereomer mixture)]
# Assay: probe-labelled cysteine peptide fold change vs DMSO (competition) (log2 fold change); higher = less target engagement (more negative = stronger competition)
# Conditions: THP-1, incubation time: 4 h
# 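Note: competitive chemoproteomic profiling in live THP-1 cells with an iodoacetamide desthiobiotin (IA-DTB) probe, comparing probe-labelled peptide intensities in compound-treated cells against DMSO-treated controls.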
Target,probe-labelled cysteine peptide fold change (10 µM),probe-labelled cysteine peptide fold change (50 µM)
CNOT4_O95628_175_AIQCVNNVVVDGR (UniProt O95628),0.0992,0.172
COPG1_Q9Y678_440_ETGLSHLCEFIEDCEFTVLATR (UniProt Q9Y678),0.0738,0.0372
COPB1_P53618_466_GALWILGEYCSTK (UniProt P53618),-0.148,0.00929
COPB2_P35606_351_DMGSCEIYPQTIQHNPNGR (UniProt P35606),0.0949,-0.232
COG1_Q8WTW3_87_ATDQYCAR (UniProt Q8WTW3),0.00729,-0.0459
COPS6_Q7L5N1_299_TCNTMNQFVNK (UniProt Q7L5N1),0.0367,-0.0373
COPB2_P35606_221+234_TCVQTLEGHAQNVSCASFHPELPIIITGSEDGTVR (UniProt P35606),0.238,-0.14
CNDP2_Q96KP4_222_GICYFFIEVECSNK (UniProt Q96KP4),0.368,0.367
COPB1_P53618_623_VLSECSPLMNDIFNK (UniProt P53618),-0.0798,0.129
CNOT10_Q9H9A5_504_NSNQLGGNTESSESSETCSSK (UniProt Q9H9A5),-0.128,0.114
COPG1_Q9Y678_726_EDPTAVACTFSCMMK (UniProt Q9Y678),0.0698,-0.0871
COMT_P21964_223_GTVLLADNVICPGAPDFLAHVR (UniProt P21964),0.021,-0.00178
COPA_P53621_522_LDALCNIHENIR (UniProt P53621),0.0545,0.0751
COPA_P53621_245_AWEVDTCR (UniProt P53621),-0.0469,-0.0634

# Reformatted as tab-separated lines: entries from further up
Target	probe-labelled cysteine peptide fold change (10 µM)	probe-labelled cysteine peptide fold change (50 µM)
COPG1_Q9Y678_440_ETGLSHLCEFIEDCEFTVLATR (UniProt Q9Y678)	0.0738	0.0372
COPB1_P53618_466_GALWILGEYCSTK (UniProt P53618)	-0.148	0.00929
COPB2_P35606_351_DMGSCEIYPQTIQHNPNGR (UniProt P35606)	0.0949	-0.232
